Measured values published in patent US20240390508A1, “HUMAN TRANSFERRIN RECEPTOR BINDING PEPTIDE-DRUG CONJUGATE” (priority 2021, published 2024).
pKd: −log10 of the molar value. At least one structure is not confirmed: it was looked up by name or label, or the drawing left a doubt.

Protein sequences, listed by entry. Tags and fused reporters are not part of them.
UniProt P02786, whole entry: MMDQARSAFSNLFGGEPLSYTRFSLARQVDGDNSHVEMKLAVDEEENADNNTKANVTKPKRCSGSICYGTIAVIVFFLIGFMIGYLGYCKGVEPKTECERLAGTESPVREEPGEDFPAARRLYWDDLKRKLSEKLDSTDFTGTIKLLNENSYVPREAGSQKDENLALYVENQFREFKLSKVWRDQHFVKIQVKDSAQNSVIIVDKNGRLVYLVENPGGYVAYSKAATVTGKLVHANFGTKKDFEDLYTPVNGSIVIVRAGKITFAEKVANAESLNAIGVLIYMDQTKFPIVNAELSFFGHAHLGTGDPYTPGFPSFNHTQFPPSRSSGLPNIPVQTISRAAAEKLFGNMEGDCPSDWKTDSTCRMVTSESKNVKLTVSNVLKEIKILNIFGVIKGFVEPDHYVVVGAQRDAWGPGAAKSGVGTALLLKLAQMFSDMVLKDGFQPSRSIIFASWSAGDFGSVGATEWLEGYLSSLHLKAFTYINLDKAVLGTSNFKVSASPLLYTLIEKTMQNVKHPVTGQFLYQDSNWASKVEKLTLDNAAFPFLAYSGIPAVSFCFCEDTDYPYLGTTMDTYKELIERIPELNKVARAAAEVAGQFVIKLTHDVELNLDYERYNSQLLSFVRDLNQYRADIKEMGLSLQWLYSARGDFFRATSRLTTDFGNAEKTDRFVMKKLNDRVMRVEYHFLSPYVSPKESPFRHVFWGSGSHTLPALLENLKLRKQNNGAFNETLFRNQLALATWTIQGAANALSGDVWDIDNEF

Target: transferrin receptor (hTfR) (Homo sapiens, UniProt P02786)
Experiment: Intermolecular interaction evaluation test between transferrin receptor (hTfR) and peptide-nucleic acid conjugate using surface plasmon resonance (SPR)
Type: binding
Settings: KD value to hTfR by SPR, Biacore T200, Single Cycle Kinetics, hTfR immobilized on NTA sensor chip
Protocol: Intermolecular interaction evaluation test between transferrin receptor (hTfR) and peptide using surface plasmon resonance (SPR)
The various synthesized peptide-nucleic acid conjugates were tested for intermolecular interaction by surface plasmon resonance (SPR) of the peptide-nucleic acid conjugate with transferrin receptor (hTfR) using the method shown below. The specific test method is shown below.
NTA sensor chip (Global Life Science Technologies Japan Co., Ltd.) was inserted into Biacore T200 (Global Life Science Technologies Japan Co., Ltd.), prime operation was performed three times with running buffer: 10 mM HEPES pH 8.0 (Nacalai Tesque Co., Ltd.), 150 mM NaCl (Nacalai Tesque Co., Ltd.), 0.05% Tween 20 (Nacalai Tesque Co., Ltd.), 0.1% BSA (SIGMA-ALDRICH), and 1.0% DMSO (FUJIFILM Wako Pure Chemical Corporation), and equilibrated at a flow rate of 30 μL/min. 350 mM EDTA solution was reacted for 60 seconds at a flow rate of 10 μL/min, 0.5 mM NiCl2 solution (Kishida Chemical) was reacted for 60 seconds at a flow rate of 10 μL/min, and the NTA sensor chip was washed with 3 mM EDTA solution (Nacalai Tesque Co., Ltd.) for 60 seconds at a flow rate of 10 μL/min. After mixing 50 μL each of […] EDC solution (Global Life Science Technologies Japan Co., Ltd.) and […] NHS solution (Global Life Science Technologies Japan Co., Ltd.), the mixture was reacted for 420 seconds at a flow rate of 10 μL/min. 150 μL of a 0.5 μM hTfR solution was prepared by diluting with a running buffer and reacted for 300 seconds at a flow rate of 10 μL/min to immobilize hTfR on the NTA sensor chip. After immobilization, capping was performed by reacting with a 1.0 M ethanolamine aqueous solution (Global Life Science Technologies Japan Co., Ltd.) at a flow rate of 10 μL/min for 420 seconds. A peptide-nucleic acid conjugate solution adjusted to 10 mM in DMSO solution was diluted with running buffer to a final concentration of 10 μM peptide-nucleic acid conjugate solution, and 100 nM, 50 nM, 25 nM, 10 nM, 5 nM peptide-nucleic acid conjugate solutions were prepared. Using the aforementioned samples, the kinetics of the peptide against hTfR was obtained by SPR measurement.
The kinetics evaluation model was Single Cycle Kinetics, and curve fitting was performed using Biacore T200 Evaluation Software Version 3.0 (Global Life Science Technologies Japan Co., Ltd.). The obtained sensorgram was subjected to curve fitting using the least squares method, and the binding of the peptide-nucleic acid conjugate to hTfR was evaluated by determining the KD value.

Question: With `CC[C@H](C)[C@@H]1NC(=O)[C@H](Cc2ccc(O)cc2)NC(=O)[C@H](Cc2ccc(O)cc2)NC(=O)[C@H](CC(N)=O)NC(=O)[C@H](Cc2c[nH]c3ccccc23)NC(=O)[C@H](C(C)C)NC(=O)[C@H](Cc2ccccc2)N(C)C(=O)[C@H](C(C)C)NC(=O)[C@H](C)NC(=O)CSC[C@@H](C(=O)NCC(=O)N[C@@H](CCCCn2nnc3c2CCC2C(CC3)C2COC(=O)NCCCCCCOP(=O)(O)OC[C@H]2O[C@@H](n3ccc(N)nc3=O)[C@H](OC)[C@@H]2OP(=O)(S)OC[C@H]2O[C@@H](n3ccc(N)nc3=O)[C@H](OC)[C@@H]2OP(=O)(S)OC[C@H]2O[C@@H](n3ccc(=O)[nH]c3=O)[C@H](OC)[C@@H]2OP(=O)(S)OC[C@H]2O[C@@H](n3ccc(=O)[nH]c3=O)[C@H](OC)[C@@H]2OP(=O)(O)OC[C@H]2O[C@@H](n3ccc(N)nc3=O)[C@H](OC)[C@@H]2OP(=O)(O)OC[C@H]2O[C@@H](n3cnc4c(N)ncnc43)[C@H](O)[C@@H]2OP(=O)(O)OC[C@H]2O[C@@H](n3cnc4c(=O)[nH]c(N)nc43)[C@H](O)[C@@H]2OP(=O)(O)OC[C@H]2O[C@@H](n3cnc4c(N)ncnc43)[C@H](O)[C@@H]2OP(=O)(O)OC[C@H]2O[C@@H](n3cnc4c(N)ncnc43)[C@H](O)[C@@H]2OP(=O)(O)OC[C@H]2O[C@@H](n3ccc(N)nc3=O)[C@H](OC)[C@@H]2OP(=O)(O)OC[C@H]2O[C@@H](n3ccc(N)nc3=O)[C@H](OC)[C@@H]2OP(=O)(O)OC[C@H]2O[C@@H](n3cnc4c(=O)[nH]c(N)nc43)[C@H](O)[C@@H]2OP(=O)(O)OC[C@H]2O[C@@H](n3cnc4c(=O)[nH]c(N)nc43)[C@H](O)[C@@H]2OP(=O)(S)OC[C@H]2O[C@@H](n3cnc4c(N)ncnc43)[C@H](OC)[C@@H]2OP(=O)(S)OC[C@H]2O[C@@H](n3cnc4c(=O)[nH]c(N)nc43)[C@H](OC)[C@@H]2OP(=O)(S)OC[C@H]2O[C@@H](n3cnc4c(=O)[nH]c(N)nc43)[C@H](OC)[C@@H]2O)C(N)=O)NC(=O)[C@H](Cc2ccc(O)cc2)N(C)C(=O)[C@H](Cc2ccc(O)cc2)NC(=O)[C@H](CCCNC(=N)N)NC(=O)[C@H](CCCNC(=N)N)NC(=O)[C@H]([C@@H](C)CC)NC1=O` (single isomer, unassigned) [Example 20] as the molecule, how does the pKd read?
Answer: > 7.00

Question: `CC[C@H](C)[C@@H]1NC(=O)[C@H](Cc2ccc(O)cc2)NC(=O)[C@H](Cc2ccc(O)cc2)NC(=O)[C@H](CC(N)=O)NC(=O)[C@H](Cc2c[nH]c3ccccc23)NC(=O)[C@H](C(C)C)NC(=O)[C@H](Cc2ccccc2)N(C)C(=O)[C@H](C(C)C)NC(=O)[C@H](C)NC(=O)CSC[C@@H](C(=O)NCC(=O)N[C@@H](CCCCn2nnc3c2CCC2C(CC3)C2COC(=O)NCCCCCCOP(=O)(O)OC[C@H]2O[C@@H](n3cnc4c(=O)[nH]c(N)nc43)[C@H](OC)[C@@H]2OP(=O)(S)OC[C@H]2O[C@@H](n3cnc4c(N)ncnc43)[C@H](OC)[C@@H]2OP(=O)(S)OC[C@H]2O[C@@H](n3cnc4c(N)ncnc43)[C@H](OC)[C@@H]2OP(=O)(S)OC[C@H]2O[C@@H](n3ccc(N)nc3=O)C[C@@H]2OP(=O)(O)OC[C@H]2O[C@@H](n3cnc4c(N)ncnc43)[C@H](O)[C@@H]2OP(=O)(O)OC[C@H]2O[C@@H](n3ccc(N)nc3=O)C[C@@H]2OP(=O)(O)OC[C@H]2O[C@@H](n3ccc(N)nc3=O)C[C@@H]2OP(=O)(O)OC[C@H]2O[C@@H](n3cc(C)c(=O)[nH]c3=O)C[C@@H]2OP(=O)(O)OC[C@H]2O[C@@H](n3cc(C)c(=O)[nH]c3=O)C[C@@H]2OP(=O)(O)OC[C@H]2O[C@@H](n3ccc(N)nc3=O)C[C@@H]2OP(=O)(O)OC[C@H]2O[C@@H](n3cnc4c(N)ncnc43)[C@H](O)[C@@H]2OP(=O)(O)OC[C@H]2O[C@@H](n3cnc4c(=O)[nH]c(N)nc43)[C@H](O)[C@@H]2OP(=O)(O)OC[C@H]2O[C@@H](n3cnc4c(N)ncnc43)[C@H](O)[C@@H]2OP(=O)(S)OC[C@H]2O[C@@H](n3cnc4c(N)ncnc43)[C@H](OC)[C@@H]2OP(=O)(S)OC[C@H]2O[C@@H](n3ccc(N)nc3=O)[C@H](OC)[C@@H]2OP(=O)(S)OC[C@H]2O[C@@H](n3ccc(N)nc3=O)[C@H](OC)[C@@H]2O)C(N)=O)NC(=O)[C@H](Cc2ccc(O)cc2)N(C)C(=O)[C@H](Cc2ccc(O)cc2)NC(=O)[C@H](CCCNC(=N)N)NC(=O)[C@H](CCCNC(=N)N)NC(=O)[C@H]([C@@H](C)CC)NC1=O` (single isomer, unassigned) [Example 22] was tested. Which pKd did it give?
Answer: > 7.00

Question: With `CC[C@H](C)[C@@H]1NC(=O)[C@H](Cc2ccc(O)cc2)NC(=O)[C@H](Cc2ccc(O)cc2)NC(=O)[C@H](CC(N)=O)NC(=O)[C@H](Cc2c[nH]c3ccccc23)NC(=O)[C@H](C(C)C)NC(=O)[C@H](Cc2ccccc2)N(C)C(=O)[C@H](C(C)C)NC(=O)[C@H](C)NC(=O)CSC[C@@H](C(=O)NCC(=O)N[C@@H](CCCCn2nnc3c2CCC2C(CC3)C2COC(=O)NCCCCCCOP(=O)(O)OC[C@@]23CN(C)O[C@@H]([C@H](n4cnc5c(=O)[nH]c(N)nc54)O2)[C@@H]3OP(=O)(S)OC[C@@]23CN(C)O[C@@H]([C@H](n4cnc5c(N)ncnc54)O2)[C@@H]3OP(=O)(S)OC[C@@]23CN(C)O[C@@H]([C@H](n4cnc5c(N)ncnc54)O2)[C@@H]3OP(=O)(S)OC[C@H]2O[C@@H](n3ccc(N)nc3=O)C[C@@H]2OP(=O)(O)OC[C@H]2O[C@@H](n3cnc4c(N)ncnc43)[C@H](O)[C@@H]2OP(=O)(O)OC[C@H]2O[C@@H](n3ccc(N)nc3=O)C[C@@H]2OP(=O)(O)OC[C@H]2O[C@@H](n3ccc(N)nc3=O)C[C@@H]2OP(=O)(O)OC[C@H]2O[C@@H](n3cc(C)c(=O)[nH]c3=O)C[C@@H]2OP(=O)(O)OC[C@H]2O[C@@H](n3cc(C)c(=O)[nH]c3=O)C[C@@H]2OP(=O)(O)OC[C@H]2O[C@@H](n3ccc(N)nc3=O)C[C@@H]2OP(=O)(O)OC[C@H]2O[C@@H](n3cnc4c(N)ncnc43)[C@H](O)[C@@H]2OP(=O)(O)OC[C@H]2O[C@@H](n3cnc4c(=O)[nH]c(N)nc43)[C@H](O)[C@@H]2OP(=O)(O)OC[C@H]2O[C@@H](n3cnc4c(N)ncnc43)[C@H](O)[C@@H]2OP(=O)(O)OC[C@H]2O[C@@H](n3cnc4c(N)ncnc43)[C@H](O)[C@@H]2OP(=O)(O)OC[C@H]2O[C@@H](n3ccc(N)nc3=O)C[C@@H]2OP(=O)(O)OC[C@H]2O[C@@H](n3ccc(N)nc3=O)C[C@@H]2OP(=O)(O)OC[C@H]2O[C@@H](n3cnc4c(=O)[nH]c(N)nc43)[C@H](O)[C@@H]2OP(=O)(O)OC[C@H]2O[C@@H](n3cnc4c(=O)[nH]c(N)nc43)[C@H](O)[C@@H]2OP(=O)(O)OC[C@H]2O[C@@H](n3cnc4c(N)ncnc43)[C@H](O)[C@@H]2OP(=O)(O)OC[C@H]2O[C@@H](n3cnc4c(=O)[nH]c(N)nc43)[C@H](O)[C@@H]2OP(=O)(O)OC[C@H]2O[C@@H](n3cnc4c(=O)[nH]c(N)nc43)[C@H](O)[C@@H]2OP(=O)(O)OC[C@H]2O[C@@H](n3ccc(N)nc3=O)C[C@@H]2OP(=O)(S)OC[C@@]23CN(C)O[C@@H]([C@H](n4cnc5c(N)ncnc54)O2)[C@@H]3OP(=O)(S)OC[C@@]23CN(C)O[C@@H]([C@H](n4cnc5c(N)ncnc54)O2)[C@@H]3OP(=O)(S)OC[C@@]23CN(C)O[C@@H]([C@H](n4cc(C)c(N)nc4=O)O2)[C@@H]3O)C(N)=O)NC(=O)[C@H](Cc2ccc(O)cc2)N(C)C(=O)[C@H](Cc2ccc(O)cc2)NC(=O)[C@H](CCCNC(=N)N)NC(=O)[C@H](CCCNC(=N)N)NC(=O)[C@H]([C@@H](C)CC)NC1=O` (stereo partly drawn) [Example 7] as the molecule, how does the pKd read?
Answer: > 7.00
